The results in this text go back to patent US20060251639A1.

Amino acid sequences for entries named in this document (tags omitted). A change or cut given only in a name is not applied to a line headed by its entry. Residues count along the entry.
UniProt Q9NNX6, residues 62-404: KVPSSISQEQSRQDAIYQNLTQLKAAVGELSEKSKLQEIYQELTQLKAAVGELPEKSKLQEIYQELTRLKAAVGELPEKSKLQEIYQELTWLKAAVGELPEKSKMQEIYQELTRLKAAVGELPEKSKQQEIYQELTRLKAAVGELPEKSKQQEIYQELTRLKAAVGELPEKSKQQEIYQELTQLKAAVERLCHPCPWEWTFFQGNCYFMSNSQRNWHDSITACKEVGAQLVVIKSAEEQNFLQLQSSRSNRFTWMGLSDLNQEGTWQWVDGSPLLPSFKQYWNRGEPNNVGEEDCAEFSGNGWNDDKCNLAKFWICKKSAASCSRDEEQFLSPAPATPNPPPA
UniProt B3EWN9: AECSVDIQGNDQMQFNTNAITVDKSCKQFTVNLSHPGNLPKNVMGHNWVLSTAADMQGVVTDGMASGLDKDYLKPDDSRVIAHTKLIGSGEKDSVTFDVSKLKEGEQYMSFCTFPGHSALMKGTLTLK
UniProt P13591, residues 20-718: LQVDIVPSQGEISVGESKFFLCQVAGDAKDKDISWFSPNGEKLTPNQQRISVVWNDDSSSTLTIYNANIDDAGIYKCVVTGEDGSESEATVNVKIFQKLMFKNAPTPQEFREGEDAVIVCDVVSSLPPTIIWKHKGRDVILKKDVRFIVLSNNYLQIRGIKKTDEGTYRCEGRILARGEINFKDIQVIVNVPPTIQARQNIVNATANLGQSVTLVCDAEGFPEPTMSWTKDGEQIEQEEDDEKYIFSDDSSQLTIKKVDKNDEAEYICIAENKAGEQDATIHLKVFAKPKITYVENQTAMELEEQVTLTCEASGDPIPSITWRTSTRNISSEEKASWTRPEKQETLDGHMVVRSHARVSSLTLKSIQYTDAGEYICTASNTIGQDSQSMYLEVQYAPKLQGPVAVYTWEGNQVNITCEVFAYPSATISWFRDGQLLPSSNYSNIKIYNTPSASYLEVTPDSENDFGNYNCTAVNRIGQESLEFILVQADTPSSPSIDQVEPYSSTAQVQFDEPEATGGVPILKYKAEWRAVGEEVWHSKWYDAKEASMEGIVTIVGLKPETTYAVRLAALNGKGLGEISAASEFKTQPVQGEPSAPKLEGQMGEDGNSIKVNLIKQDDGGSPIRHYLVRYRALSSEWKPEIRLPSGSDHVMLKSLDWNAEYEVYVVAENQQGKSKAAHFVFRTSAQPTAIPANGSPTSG

These are yes or no findings as the source states them, for the method shown. Some results given as binding are weak or reduced against the parent protein; the word gives no strength.

For assay [1], the target named is DC-SIGN (DC-specific intercellular adhesion molecule 3-grabbing nonintegrin) (UniProt Q9NNX6). In words: SPR, DC-SIGN immobilised on sensor chip.
In assay [2] the target is azurin from Pseudomonas aeruginosa (Pseudomonas aeruginosa) (UniProt P00282). As to the kind of experiment: SPR, azurin immobilised on CM5 chip.
In the next assay the target is T1, ICAM-3 (UniProt P32942).
T1 sequence (looked up): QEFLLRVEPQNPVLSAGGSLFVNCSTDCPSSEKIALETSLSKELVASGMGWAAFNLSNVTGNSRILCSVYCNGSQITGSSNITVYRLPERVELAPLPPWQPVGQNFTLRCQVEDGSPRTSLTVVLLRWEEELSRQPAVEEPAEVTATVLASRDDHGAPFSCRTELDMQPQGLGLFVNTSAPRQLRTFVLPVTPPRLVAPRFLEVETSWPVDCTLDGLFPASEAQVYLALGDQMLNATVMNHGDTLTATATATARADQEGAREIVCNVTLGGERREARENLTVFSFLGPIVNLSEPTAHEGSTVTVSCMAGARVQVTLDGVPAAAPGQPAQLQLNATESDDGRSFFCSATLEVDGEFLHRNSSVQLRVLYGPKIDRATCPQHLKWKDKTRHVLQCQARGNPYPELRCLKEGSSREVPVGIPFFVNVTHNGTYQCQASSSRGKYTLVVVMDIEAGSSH
In words: SPR. A general note: SPR reads the build-up and loss of mass on a sensor chip optically.

As to “GST-Azu 36-89 (from UniProt B3EWN9 36-89)”, the binding entry in assay [1] was “binds”.

On to “NCAM (from UniProt P13591 20-718) (receptor)”, for which the binding result in assay [2] was “binds”.

For “azurin from Pseudomonas aeruginosa (from UniProt P00282 21-148)”, the binding result (in assay [1]; with ICAM-3) was “binds” throughout.

B1: ICAM-3 (receptor, UniProt P32942 30-485, looked up)
chain: T1 sequence (looked up)
Consider B1, for which the binding result in assay [1] and in assay [2] was “binds” in each case.
